Measured values as given in publication PMC3896468.
Results are given in words; binding and its absence hold for the method and conditions named. Binding calls can cover weak binding; strength is not graded here. Tags and fused reporters may be left off the sequences shown.

Target: GST-tagged HMG domain of TCF/Pangolin (Drosophila)
Assay: pull-down; GST pulldown: 2 µg His-C-clamp with 2 µg GST or GST-HMG, 1 h at 4°C in 20 mM Tris-HCl pH 7.62, 150 mM NaCl, 1% Triton X-100; then Glutathione Sepharose beads for 2 h; anti-His Western blot. Also done after pretreatment with micrococcal nuclease (5 mM CaCl2) or OPA, with no effect on binding; both purified

## DSGGNNMKKCRARFGLDQQSQWCKPCRRKKKCIRYMEALNGNGPAE (domain or fragment, UniProt P91943 363-408) [His-tagged C-clamp fragment of TCF/Pangolin (wild type)]
  binding: binds
